No constants are given. Whether binding was seen depends on the method and setting. Binding seen in cells or lysates may run through a third protein. Binding calls can cover weak binding; strength is not graded here. Tags and fused reporters may be left off the sequences shown.
B1: myc-PLCβ1 (enzyme, UniProt Q9Z1B3 1-1216)
chain: MAGAQPGVHALQLKPVCVSDSLKKGTKFVKWDDDSTIVTPIILRTDPQGFFFYWTDQNKETELLDLSLVKDARCGKHAKAPKDPKLRELLDVGNIGHLEQRMITVVYGPDLVNISHLNLVAFQEEVAKEWTNEVFSLATNLLAQNMSRDAFLEKAYTKLKLQVTPEGRIPLKNIYRLFSADRKRVETALEACSLPSSRNDSIPQEDFTPDVYRVFLNNLCPRPEIDNIFSEFGAKSKPYLTVDQMMDFINLKQRDPRLNEILYPPLKQEQVQVLIEKYEPNSSLAKKGQMSVDGFMRYLSGEENGVVSPEKLDLNEDMSQPLSHYFINSSHNTYLTAGQLAGNSSVEMYRQVLLSGCRCVELDCWKGRTAEEEPVITHGFTMTTEISFKEVIEAIAECAFKTSPFPILLSFENHVDSPKQQAKMAEYCRLIFGDALLMEPLEKYPLESGVPLPSPMDLMYKILVKNKKKSHKSSEGSGKKKLSEQASNTYSDSSSVFEPSSPGAGEADTESDDDDDDDDCKKSSMDEGTAGSEAMATEEMSNLVNYIQPVKFESFEISKKRNKSFEMSSFVETKGLEQLTKSPVEFVEYNKMQLSRIYPKGTRVDSSNYMPQLFWNAGCQMVALNFQTVDLAMQINMGMYEYNGKSGYRLKPEFMRRPDKHFDPFTEGIVDGIVANTLSVKIISGQFLSDKKVGTYVEVDMFGLPVDTRRKAFKTKTSQGNAVNPVWEEEPIVFKKVVLPSLACLRIAAYEEGGKFIGHRILPVQAIRPGYHYICLRNERNQPLTLPAVFVYIEVKDYVPDTYADVIEALSNPIRYVNLMEQRAKQLAALTLEDEEEVKKEADPGETSSEAPSETRTTPAENGVNHTASLAPKPPSQAPHSQPAPGSVKAPAKTEDLIQSVLTEVEAQTIEELKQQKSFVKLQKKHYKEMKDLVKRHHKKTTELIKEHTTKYNEIQNDYLRRRAALEKSAKKDSKKKSEPSSPDHGSSAIEQDLAALDAEMTQKLIDLKDKQQQQLLNLRQEQYYSEKYQKREHIKLLIQKLTDVAEECQNNQLKKLKEICEKEKKELKKKMDKKRQEKITEAKSKDKSQMEEEKTEMIRSYIQEVVQYIKRLEEAQSKRQEKLVEKHNEIRQQILDEKPKLQTELEQEYQDKFKRLPLEILEFVQEAMKGKISEDSNHGSAPPSLASDAAKVNLKSPSSEEIERENPGREFDTPL
B2: myc-SNIP (protein, UniProt Q9QWI6 1-1250)
chain: MQPWQCLRRFALAWWERTAEGRARSPREEVGPRDPGGRGEPDPERSSPPMLSADDAEYPREYRTLGGGGGGGSGGRRFSNVGLVHTSERRHTVIAAQSLEALSGLQKADADRKRDAFMDHLKSKYPQHALALRGQQDRMREQVGGWTVDPVCLLSSLCSHLHGDSTPSGAGQPAQQPNYWSFKTRSSRHTQGAQPGLADQAAKLSYASAESLETMSEAELPLGFSRMNRFRQSLPLSRSASQTKLRSPGVLFLQFGEETRRVHITHEVSSLDTLHALIAHMFPQKLTMGMLKSPNTAILIKDEARNVFYELEDVRDIQDRSIIKIYRKEPLYAAFPGSHLTNGDLRREMVYASRESSPTRRLNNLSPASHLASSSPPPGLPSGLPSGLPSGSPSRSRLSYAGGRPPSYAGSPVHHAAERLGGAPTGQGVSPSPSAILERRDVKPDEDLAGKAGGMVLVKGEGLYADPYGLLHEGRLSLAAAAETHSHTRARAACTSGVPCALSAPTPLPRCSPTWRTRCTRRALAALYGDGYGFRLPPSSPQKLADVSAPSGGPPPPHSPYSGPPSRGSPVRQSFRKDSGSSSVFAESPGGKARSTGSASTAGAPPSELFPGPGERSLVGFGPPVPAKDTETRERMEAMEKQIASLTGLVQSALLRGSEPETPSEKVEGSNGAATPSAPVCGSGSKSSGATPVSGPPPPSASSTPAGQPTAVSRLQMQLHLRGLQNSASDLRGQLQQLRNVQLQNQESVRALLKPTEADVSMRVSEAARRQEDPLQRQRTLVEEERLRYLNDEELITQQLNDLEKSVEKIQRDVAHNHRLMPGPELEEKALVLKQLGETLTELKAHFPGLQSKMRVVLRVEVEAVKFLKEEPQRLDGLLKRCRGVTDTLAQIRRQVDEGMWPPPNNLLNQSPKKVAAETDFSKGLDFEIPPPSPPLNLHELSGPAEGTPLTPKSTNPTKCLDASSKRNTDKAVSVEAAERDWEEKRAALTQYSAKDINRLLEETQAELLKAIPDLDCASKTHPGPAPTPDHKPPKAPHGQKAAPRTEPSGRRGSDELTVPRYRTEKPSKSPPPPPPRRSFPSSHGLTTTRTGEVVVTSKKDSVFIKKAESEELEVQKPQVKLRRAVSEVVRPASTPPIMASAIKDEDDEERIIAELESGGSSVPPMKVVTPGASRLKAAQGPAGSPDKGKHGKQRTEYMRIQAQQQATKPSKEVSGPNETSSPGSEKPSGSRTSIPVLTSFGARNSSISF
B3: FLAG-Rasal1 (protein, UniProt Q9Z268 1-799)
chain: MAKSGSLSIRVVEGRALPAKDVSGSSDPYCLVKVDDQVVARTATIWRSLSPFWGEEYTVHLPLDFHHLAFYVLDEDTVGHDDIIGKISLSKEAITADPRGIDSWINLSRVDPDAEVQGEVCLDVKLLEDARGRCLRCHVRQARDLAPRDISGTSDPFARVFWGNHSLETSTIKKTRFPHWDEVLELREAPGTTSPLRVELWDWDMVGKNDFLGMVEFTPQTLQQKPPNGWFRLLPFPRAEDSGGSLGALRLKVRLTEDRVLPSQYYQPLMELLLESVQGPAEEDTTSPLALLEELASGDCRQDLATKLVKLFLGRGLAGPFLDYLTRREVARTNDPNTLFRSNSLASKSMEQFMKLVGMRYLHEVLRPVISRVFEEKKYMELDPCKMDLNRSRRISFKGTPTEEQVRETSLGLLTGYLGSVVDAIVSSTGRCPLALRLAFKQLQRCVEKRFSGIEHQDVKYLAISGFLFLRFFAPAILTPKLFDLRDQHADPQTSRSLLLLAKAVQSIGNLGQQLGQGKEQWLAPLHPFLLQSISRVRDFLDQLVDVDEDEEAGGPACALVQPSTIVREGFLLKRKEEPGGLATRFAFKKRYFRLSGRDLSYSKTPEWQVHTSIPLSCIRAVEHVDEGAFQLPHVMQVVTQDGAGTSHTTYLQCKNVNDLNQWLSALRKASAPNPGKLVACHPGAFRSGRWTCCLQAERSAAGCSRTHSAITLGDWSDPLDPDAEAQAVYRQLLLGRDQLRLKLLEDSSLDTEVDPGRDSSATDGPCAEVLAQQRAATTHLLQVLEDLEQAHEEFQKRG

biological target: MBP-fusion protein with the CT domain of IL1RAPL1 (mouse); experiment: pull-down; lysates of transfected HEK 293T cells incubated with amylose resins coupled to purified MBP-fusion proteins of IL1RAPL1 domains; immunoblotting with anti-FLAG or anti-Myc antibody; only the target purified

binding, binds:
B1
B2
B3

Reference: paper PMC3681934
